According to publication PMC5045167, “STN1 OB Fold Mutation Alters DNA Binding and Affects Selective Aspects of CST Function”:
Results are given in words; binding and its absence hold for the method and conditions named. For some of these results: Binding seen in cells or lysates may run through a third protein. Some results given as binding are weak or reduced against the parent protein; the word gives no strength. Sequences can lack the tags named with a protein.

Amino acid sequences for entries named in this document (tags omitted).
UniProt Q96AP0: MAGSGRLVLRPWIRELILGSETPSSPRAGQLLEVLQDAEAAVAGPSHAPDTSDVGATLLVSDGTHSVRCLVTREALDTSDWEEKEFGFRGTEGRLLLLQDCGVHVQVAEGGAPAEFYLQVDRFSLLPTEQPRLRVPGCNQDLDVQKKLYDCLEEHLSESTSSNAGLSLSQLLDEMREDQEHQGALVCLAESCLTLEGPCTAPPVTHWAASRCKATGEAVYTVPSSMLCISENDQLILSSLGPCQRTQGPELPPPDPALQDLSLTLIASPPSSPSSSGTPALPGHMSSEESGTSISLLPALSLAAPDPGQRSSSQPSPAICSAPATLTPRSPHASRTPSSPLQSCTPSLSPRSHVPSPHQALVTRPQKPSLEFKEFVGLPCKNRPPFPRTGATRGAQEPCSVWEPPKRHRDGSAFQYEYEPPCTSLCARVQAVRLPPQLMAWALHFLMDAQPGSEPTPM

T1: FLAG-tagged STN1-OBM (STN1 OB-fold mutant, W89A, R139L, Y141A) (human) (UniProt Q9H668)
T1 sequence: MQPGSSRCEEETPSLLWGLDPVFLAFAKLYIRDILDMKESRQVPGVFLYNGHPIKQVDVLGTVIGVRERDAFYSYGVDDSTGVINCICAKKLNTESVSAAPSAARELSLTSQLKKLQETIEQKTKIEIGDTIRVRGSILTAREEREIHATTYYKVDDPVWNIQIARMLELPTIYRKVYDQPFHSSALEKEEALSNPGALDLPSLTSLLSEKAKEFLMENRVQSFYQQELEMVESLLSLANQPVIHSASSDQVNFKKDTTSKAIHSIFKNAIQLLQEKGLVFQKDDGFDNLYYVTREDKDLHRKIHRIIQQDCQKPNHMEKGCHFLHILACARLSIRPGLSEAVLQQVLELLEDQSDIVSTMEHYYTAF

T2: FLAG-tagged STN1 (human) (UniProt Q9H668)
T2 sequence: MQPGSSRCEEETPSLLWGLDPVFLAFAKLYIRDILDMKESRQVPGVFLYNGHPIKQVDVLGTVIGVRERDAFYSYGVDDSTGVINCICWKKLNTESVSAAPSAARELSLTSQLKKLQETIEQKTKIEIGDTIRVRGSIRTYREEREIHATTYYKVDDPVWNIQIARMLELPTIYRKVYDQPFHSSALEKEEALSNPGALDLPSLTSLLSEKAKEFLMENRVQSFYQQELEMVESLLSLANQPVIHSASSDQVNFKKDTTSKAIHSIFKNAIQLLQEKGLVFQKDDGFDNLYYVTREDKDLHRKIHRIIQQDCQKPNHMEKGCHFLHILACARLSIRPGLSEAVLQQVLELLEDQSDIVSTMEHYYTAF

T3: His-tagged STN1 (human) (UniProt Q9H668)
T3 sequence: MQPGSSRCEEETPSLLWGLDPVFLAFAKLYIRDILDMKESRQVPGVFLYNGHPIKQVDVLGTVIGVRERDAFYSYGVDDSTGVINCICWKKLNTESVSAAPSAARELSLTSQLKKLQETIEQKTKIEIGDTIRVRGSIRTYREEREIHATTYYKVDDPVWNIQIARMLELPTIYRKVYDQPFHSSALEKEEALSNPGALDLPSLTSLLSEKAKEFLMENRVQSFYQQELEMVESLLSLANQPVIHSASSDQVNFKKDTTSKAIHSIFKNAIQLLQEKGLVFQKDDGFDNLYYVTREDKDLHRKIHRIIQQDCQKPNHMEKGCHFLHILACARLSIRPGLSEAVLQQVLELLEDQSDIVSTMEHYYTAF

T4: His-tagged STN1-OBM (W89A, R139L, Y141A) (human) (UniProt Q9H668)
T4 sequence: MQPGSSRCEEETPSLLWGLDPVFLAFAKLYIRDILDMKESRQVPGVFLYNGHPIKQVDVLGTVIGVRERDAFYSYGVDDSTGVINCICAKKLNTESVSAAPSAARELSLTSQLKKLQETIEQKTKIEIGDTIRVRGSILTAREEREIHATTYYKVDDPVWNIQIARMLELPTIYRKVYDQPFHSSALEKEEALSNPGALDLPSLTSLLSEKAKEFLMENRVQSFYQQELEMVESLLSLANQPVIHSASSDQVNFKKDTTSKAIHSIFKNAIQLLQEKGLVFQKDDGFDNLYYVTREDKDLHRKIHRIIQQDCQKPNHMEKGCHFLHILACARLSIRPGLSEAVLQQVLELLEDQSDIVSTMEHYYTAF


Columns and labels:
[1] = target: HA-mCherry tagged TPP1 (human) (UniProt Q96AP0); test: co-IP; HEK293T transfected with HA-mCherry-TPP1 and FLAG-STN1 (WT or OBM); extract in 20 mM Tris pH 8.0, 100 mM NaCl, 1 mM MgCl2, 0.1% NP-40; TPP1 precipitated with HA antibody; Western blot
[2] = target: T1, FLAG-tagged STN1-OBM (STN1 OB-fold mutant, W89A, R139L, Y141A) (human); test: co-IP; STN1 or STN1-OBM immunoprecipitated from whole cell lysate of TEN1 over-expressing HeLa cells transiently transfected with HA-CTC1 and FLAG-STN1 or FLAG-STN1-OBM; Western blot
FLAG-tagged STN1 (human) = target: T2, FLAG-tagged STN1 (human); test: as above
His-tagged STN1 (human) = target: T3, His-tagged STN1 (human); test: tandem affinity purification (nickel resin, then FLAG beads), silver-stained gel; SF9 cells co-infected with baculovirus for FLAG-CTC1, His-STN1 or His-STN1-OBM and TEN1; lysis and nickel washes in 500 mM NaCl, FLAG beads washed in 200 mM NaCl, eluted with 3X FLAG peptide
[3] = target: T4, His-tagged STN1-OBM (W89A, R139L, Y141A) (human); test: as above

binding [1] | binding [2] | binding (FLAG-tagged STN1 (human)) | binding (His-tagged STN1 (human)) | binding [3] | Binder
binds |  |  |  |  | FLAG-tagged STN1-OBM (W89A, R139L, Y141A) (protein, UniProt Q9H668 1-368) MQPGSSRCEEETPSLLWGLDPVFLAFAKLYIRDILDMKESRQVPGVFLYNGHPIKQVDVLGTVIGVRERDAFYSYGVDDSTGVINCICAKKLNTESVSAAPSAARELSLTSQLKKLQETIEQKTKIEIGDTIRVRGSILTAREEREIHATTYYKVDDPVWNIQIARMLELPTIYRKVYDQPFHSSALEKEEALSNPGALDLPSLTSLLSEKAKEFLMENRVQSFYQQELEMVESLLSLANQPVIHSASSDQVNFKKDTTSKAIHSIFKNAIQLLQEKGLVFQKDDGFDNLYYVTREDKDLHRKIHRIIQQDCQKPNHMEKGCHFLHILACARLSIRPGLSEAVLQQVLELLEDQSDIVSTMEHYYTAF
binds |  |  |  |  | FLAG-tagged STN1 (protein, UniProt Q9H668 1-368) MQPGSSRCEEETPSLLWGLDPVFLAFAKLYIRDILDMKESRQVPGVFLYNGHPIKQVDVLGTVIGVRERDAFYSYGVDDSTGVINCICWKKLNTESVSAAPSAARELSLTSQLKKLQETIEQKTKIEIGDTIRVRGSIRTYREEREIHATTYYKVDDPVWNIQIARMLELPTIYRKVYDQPFHSSALEKEEALSNPGALDLPSLTSLLSEKAKEFLMENRVQSFYQQELEMVESLLSLANQPVIHSASSDQVNFKKDTTSKAIHSIFKNAIQLLQEKGLVFQKDDGFDNLYYVTREDKDLHRKIHRIIQQDCQKPNHMEKGCHFLHILACARLSIRPGLSEAVLQQVLELLEDQSDIVSTMEHYYTAF
 | binds | binds |  |  | TEN1 (over-expressed in HeLa cell line) (protein, UniProt Q86WV5 1-123) MMLPKPGTYYLPWEVSAGQVPDGSTLRTFGRLCLYDMIQSRVTLMAQHGSDQHQVLVCTKLVEPFHAQVGSLYIVLGELQHQQDRGSVVKARVLTCVEGMNLPLLEQAIREQRLYKQERGGSQ
 |  |  | binds | binds | untagged TEN1 (protein, UniProt Q86WV5 1-123) MMLPKPGTYYLPWEVSAGQVPDGSTLRTFGRLCLYDMIQSRVTLMAQHGSDQHQVLVCTKLVEPFHAQVGSLYIVLGELQHQQDRGSVVKARVLTCVEGMNLPLLEQAIREQRLYKQERGGSQ
 | binds | binds |  |  | HA-CTC1 (protein, UniProt Q2NKJ3 1-1217) MAAGRAQVPSSEQAWLEDAQVFIQKTLCPAVKEPNVQLTPLVIDCVKTVWLSQGRNQGSTLPLSYSFVSVQDLKTHQRLPCCSHLSWSSSAYQAWAQEAGPNGNPLPREQLLLLGTLTDLSADLEQECRNGSLYVRDNTGVLSCELIDLDLSWLGHLFLFPRWSYLPPARWNSSGEGHLELWDAPVPVFPLTISPGPVTPIPVLYPESASCLLRLRNKLRGVQRNLAGSLVRLSALVKSKQKAYFILSLGRSHPAVTHVSIIVQVPAQLVWHRALRPGTAYVLTELRVSKIRGQRQHVWMTSQSSRLLLLKPECVQELELELEGPLLEADPKPLPMPSNSEDKKDPESLVRYSRLLSYSGAVTGVLNEPAGLYELDGQLGLCLAYQQFRGLRRVMRPGVCLQLQDVHLLQSVGGGTRRPVLAPCLRGAVLLQSFSRQKPGAHSSRQAYGASLYEQLVWERQLGLPLYLWATKALEELACKLCPHVLRHHQFLQHSSPGSPSLGLQLLAPTLDLLAPPGSPVRNAHNEILEEPHHCPLQKYTRLQTPSSFPTLATLKEEGQRKAWASFDPKALLPLPEASYLPSCQLNRRLAWSWLCLLPSAFCPAQVLLGVLVASSHKGCLQLRDQSGSLPCLLLAKHSQPLSDPRLIGCLVRAERFQLIVERDVRSSFPSWKELSMPGFIQKQQARVYVQFFLADALILPVPRPCLHSATPSTPQTDPTGPEGPHLGQSRLFLLCHKEALMKRNFCVPPGASPEVPKPALSFYVLGSWLGGTQRKEGTGWGLPEPQGNDDNDQKVHLIFFGSSVRWFEFLHPGQVYRLIAPGPATPMLFEKDGSSCISRRPLELAGCASCLTVQDNWTLELESSQDIQDVLDANKSLPESSLTDLLSDNFTDSLVSFSAEILSRTLCEPLVASLWMKLGNTGAMRRCVKLTVALETAECEFPPHLDVYIEDPHLPPSLGLLPGARVHFSQLEKRVSRSHNVYCCFRSSTYVQVLSFPPETTISIPLPHIYLAELLQGGQSPFQATASCHIVSVFSLQLFWVCAYCTSICRQGKCTRLGSTCPTQTAISQAIIRLLVEDGTAEAVVTCRNHHVAAALGLCPREWASLLDFVQVPGRVVLQFAGPGAQLESSARVDEPMTMFLWTLCTSPSVLRPIVLSFELERKPSKIVPLEPPRLQRFQCGELPFLTHVNPRLRLSCLSIRESEYSSSLGILASSC
 |  |  | binds | binds | FLAG-tagged CTC1 (protein, UniProt Q2NKJ3 1-1217) MAAGRAQVPSSEQAWLEDAQVFIQKTLCPAVKEPNVQLTPLVIDCVKTVWLSQGRNQGSTLPLSYSFVSVQDLKTHQRLPCCSHLSWSSSAYQAWAQEAGPNGNPLPREQLLLLGTLTDLSADLEQECRNGSLYVRDNTGVLSCELIDLDLSWLGHLFLFPRWSYLPPARWNSSGEGHLELWDAPVPVFPLTISPGPVTPIPVLYPESASCLLRLRNKLRGVQRNLAGSLVRLSALVKSKQKAYFILSLGRSHPAVTHVSIIVQVPAQLVWHRALRPGTAYVLTELRVSKIRGQRQHVWMTSQSSRLLLLKPECVQELELELEGPLLEADPKPLPMPSNSEDKKDPESLVRYSRLLSYSGAVTGVLNEPAGLYELDGQLGLCLAYQQFRGLRRVMRPGVCLQLQDVHLLQSVGGGTRRPVLAPCLRGAVLLQSFSRQKPGAHSSRQAYGASLYEQLVWERQLGLPLYLWATKALEELACKLCPHVLRHHQFLQHSSPGSPSLGLQLLAPTLDLLAPPGSPVRNAHNEILEEPHHCPLQKYTRLQTPSSFPTLATLKEEGQRKAWASFDPKALLPLPEASYLPSCQLNRRLAWSWLCLLPSAFCPAQVLLGVLVASSHKGCLQLRDQSGSLPCLLLAKHSQPLSDPRLIGCLVRAERFQLIVERDVRSSFPSWKELSMPGFIQKQQARVYVQFFLADALILPVPRPCLHSATPSTPQTDPTGPEGPHLGQSRLFLLCHKEALMKRNFCVPPGASPEVPKPALSFYVLGSWLGGTQRKEGTGWGLPEPQGNDDNDQKVHLIFFGSSVRWFEFLHPGQVYRLIAPGPATPMLFEKDGSSCISRRPLELAGCASCLTVQDNWTLELESSQDIQDVLDANKSLPESSLTDLLSDNFTDSLVSFSAEILSRTLCEPLVASLWMKLGNTGAMRRCVKLTVALETAECEFPPHLDVYIEDPHLPPSLGLLPGARVHFSQLEKRVSRSHNVYCCFRSSTYVQVLSFPPETTISIPLPHIYLAELLQGGQSPFQATASCHIVSVFSLQLFWVCAYCTSICRQGKCTRLGSTCPTQTAISQAIIRLLVEDGTAEAVVTCRNHHVAAALGLCPREWASLLDFVQVPGRVVLQFAGPGAQLESSARVDEPMTMFLWTLCTSPSVLRPIVLSFELERKPSKIVPLEPPRLQRFQCGELPFLTHVNPRLRLSCLSIRESEYSSSLGILASSC
